Measured values: publication doi:10.64898/2025.12.30.697005
These are yes or no findings as the source states them, for the method shown. In cells and extracts the contact can be indirect. Some entries that bind do so weakly or less than the wild type.

Chains of the proteins cited; added tags and fusions are not shown. Residues count along the entry.
UniProt Q96CH1: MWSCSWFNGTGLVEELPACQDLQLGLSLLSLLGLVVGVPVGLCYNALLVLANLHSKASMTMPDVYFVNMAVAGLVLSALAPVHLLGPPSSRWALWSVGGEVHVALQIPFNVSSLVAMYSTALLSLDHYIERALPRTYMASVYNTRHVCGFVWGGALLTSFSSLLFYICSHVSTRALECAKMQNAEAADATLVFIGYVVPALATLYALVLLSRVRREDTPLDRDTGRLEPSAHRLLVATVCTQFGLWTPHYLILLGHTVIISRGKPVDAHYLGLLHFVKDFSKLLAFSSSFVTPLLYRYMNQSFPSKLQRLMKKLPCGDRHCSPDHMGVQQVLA
UniProt Q9JM99, residues 25-1054: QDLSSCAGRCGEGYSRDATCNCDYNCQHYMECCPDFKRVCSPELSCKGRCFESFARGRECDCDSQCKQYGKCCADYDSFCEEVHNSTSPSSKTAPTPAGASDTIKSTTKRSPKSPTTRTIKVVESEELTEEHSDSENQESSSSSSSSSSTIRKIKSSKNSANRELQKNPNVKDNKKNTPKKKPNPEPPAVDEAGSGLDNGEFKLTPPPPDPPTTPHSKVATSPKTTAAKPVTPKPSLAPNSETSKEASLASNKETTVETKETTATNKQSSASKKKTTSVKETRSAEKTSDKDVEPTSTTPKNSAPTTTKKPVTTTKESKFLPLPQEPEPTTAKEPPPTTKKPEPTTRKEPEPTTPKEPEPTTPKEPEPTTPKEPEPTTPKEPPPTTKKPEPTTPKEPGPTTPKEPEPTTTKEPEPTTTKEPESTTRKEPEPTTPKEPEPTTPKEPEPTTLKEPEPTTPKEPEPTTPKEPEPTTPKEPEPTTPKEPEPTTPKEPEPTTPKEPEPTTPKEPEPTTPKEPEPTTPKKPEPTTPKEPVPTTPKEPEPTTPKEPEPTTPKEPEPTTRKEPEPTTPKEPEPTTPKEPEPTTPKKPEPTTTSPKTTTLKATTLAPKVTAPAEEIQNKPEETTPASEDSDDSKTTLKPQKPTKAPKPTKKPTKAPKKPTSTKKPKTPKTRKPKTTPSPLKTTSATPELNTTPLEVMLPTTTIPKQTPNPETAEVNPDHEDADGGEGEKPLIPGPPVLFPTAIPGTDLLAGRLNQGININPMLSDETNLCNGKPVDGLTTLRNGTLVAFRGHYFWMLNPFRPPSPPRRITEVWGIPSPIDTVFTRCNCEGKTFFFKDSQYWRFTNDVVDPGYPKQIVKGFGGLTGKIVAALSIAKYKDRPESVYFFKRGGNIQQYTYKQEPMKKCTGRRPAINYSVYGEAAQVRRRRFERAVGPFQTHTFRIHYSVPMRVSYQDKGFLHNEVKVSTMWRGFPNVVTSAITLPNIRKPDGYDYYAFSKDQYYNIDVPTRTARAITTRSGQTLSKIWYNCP

Target: Flag-tagged GPR146 (UniProt Q96CH1)
Assay: co-IP

“proteoglycan 4 (Prg4) (from UniProt Q9JM99 25-1054)” was tested, and the binding was “binds”.
